Test results reported in patent US8497380B2, “Substituted acetophenones useful as PDE4 inhibitors” (Leo Pharma A/S, priority 2006, dated 2013).
Some entries share one result that the patent states for a list of compounds.

Protein sequences, listed by entry. Tags and fused reporters are not part of them. Residues count along the entry.
UniProt Q08499, 1-673 isoform Q08499-2: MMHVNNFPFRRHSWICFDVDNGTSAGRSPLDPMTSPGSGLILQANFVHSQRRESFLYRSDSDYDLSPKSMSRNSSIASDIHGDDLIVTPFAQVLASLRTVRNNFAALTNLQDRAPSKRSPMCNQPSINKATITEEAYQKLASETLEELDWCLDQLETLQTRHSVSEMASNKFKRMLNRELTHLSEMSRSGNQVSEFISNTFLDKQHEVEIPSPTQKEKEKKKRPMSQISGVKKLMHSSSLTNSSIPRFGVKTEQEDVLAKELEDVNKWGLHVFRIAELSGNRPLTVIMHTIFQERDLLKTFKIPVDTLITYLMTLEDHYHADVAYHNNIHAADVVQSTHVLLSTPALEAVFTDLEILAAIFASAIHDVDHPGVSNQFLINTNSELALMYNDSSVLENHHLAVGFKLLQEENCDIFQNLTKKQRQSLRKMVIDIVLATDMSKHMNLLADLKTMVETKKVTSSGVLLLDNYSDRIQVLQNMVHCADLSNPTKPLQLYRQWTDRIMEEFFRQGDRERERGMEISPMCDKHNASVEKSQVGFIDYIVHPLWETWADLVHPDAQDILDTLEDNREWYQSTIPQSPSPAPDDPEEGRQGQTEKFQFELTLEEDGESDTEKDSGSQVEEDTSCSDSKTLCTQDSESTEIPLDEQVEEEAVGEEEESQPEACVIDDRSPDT

target: Human recombinant PDE4 (Gene bank accession no NM—006203) (Homo sapiens, UniProt Q08499); assay: PDE4 Assay; format: biochemical; conditions: 50% inhibition of substrate (cAMP) cleavage; 1 hour incubation; test compound up to 10 uM; SPA beads

| SMILES | −log IC50 (M) |
| --- | --- |
| COc1ccc(C(=O)Cc2c(Cl)cncc2Cl)c(OCC(=O)NCc2cc(F)cc(F)c2)c1OC [Compound 234, 2-{6-[2-(3,5-Dichloro-pyridin-4-yl)-acetyl]-2,3-dimethoxy-phenoxy}-N-(3,5-difluoro-benzyl)-acetamide] | above 6 M |
| COc1ccc(C(=O)Cc2c(Cl)cncc2Cl)c(OCC(=O)NCCc2ccccn2)c1OC [Compound 236, 2-{6-[2-(3,5-Dichloro-pyridin-4-yl)-acetyl]-2,3-dimethoxy-phenoxy}-N-(2-pyridin-2-yl-ethyl)-acetamide] | above 6 M |
| COc1ccc(C(=O)Cc2c(Cl)cncc2Cl)c(OCC(=O)NCc2ccccc2C)c1OC [Compound 237, 2-{6-[2-(3,5-Dichloro-pyridin-4-yl)-acetyl]-2,3-dimethoxy-phenoxy}-N-(2-methyl-benzyl)-acetamide] | above 6 M |
| COc1ccc(C(=O)Cc2c(Cl)cncc2Cl)c(OCC(=O)NCc2cccc(F)c2)c1OC [Compound 238, 2-{6-[2-(3,5-Dichloro-pyridin-4-yl)-acetyl]-2,3-dimethoxy-phenoxy}-N-(3-fluoro-benzyl)-acetamide] | above 6 M |
| COc1ccc(C(=O)Cc2c(Cl)cncc2Cl)c(OCC(=O)NCc2cccc(C)c2)c1OC [Compound 239, 2-{6-[2-(3,5-Dichloro-pyridin-4-yl)-acetyl]-2,3-dimethoxy-phenoxy}-N-(3-methyl-benzyl)-acetamide] | above 6 M |
| COc1ccc(C(=O)Cc2c(Cl)cncc2Cl)c(OCC(=O)NCc2ccc(C)cc2)c1OC [Compound 240, 2-{6-[2-(3,5-Dichloro-pyridin-4-yl)-acetyl]-2,3-dimethoxy-phenoxy}-N-(4-methyl-benzyl)-acetamide] | above 6 M |
| COc1ccc(C(=O)Cc2c(Cl)cncc2Cl)c(OCC(=O)NCCc2ccccc2)c1OC [Compound 241, 2-{6-[2-(3,5-Dichloro-pyridin-4-yl)-acetyl]-2,3-dimethoxy-phenoxy}-N-phenethyl-acetamide] | above 6 M |
| COc1ccc(C(=O)Cc2c(Cl)cncc2Cl)c(OCC(=O)NCCCc2ccccc2)c1OC [Compound 243, 2-{6-[2-(3,5-Dichloro-pyridin-4-yl)-acetyl]-2,3-dimethoxy-phenoxy}-N-(3-phenyl-propyl)-acetamide] | above 6 M |
| COc1ccc(C(=O)Cc2c(Cl)cncc2Cl)c(OCC(=O)NCc2ccccc2Cl)c1OC [Compound 244, N-(2-Chloro-benzyl)-2-{6-[2-(3,5-dichloro-pyridin-4-yl)-acetyl]-2,3-dimethoxy-phenoxy}-acetamide] | above 6 M |
| COc1ccc(C(=O)Cc2c(Cl)cncc2Cl)c(OCC(=O)NCc2cccc(Cl)c2)c1OC [Compound 246, N-(3-Chloro-benzyl)-2-{6-(2-(3,5-dichloro-pyridin-4-yl)-acetyl)-2,3-dimethoxy-phenoxy}-acetamide] | above 6 M |
| COc1ccc(C(=O)Cc2c(Cl)cncc2Cl)c(OCC(=O)NCc2ccc(Cl)cc2)c1OC [Compound 248, N-(4-Chloro-benzyl)-2-{6-[2-(3,5-dichloro-pyridin-4-yl)-acetyl]-2,3-dimethoxy-phenoxy}-acetamide] | above 6 M |
| COc1ccc(C(=O)Cc2c(Cl)cncc2Cl)c(OCC(=O)NCCc2cccnc2)c1OC [Compound 249, 2-{6-[2-(3,5-Dichloro-pyridin-4-yl)-acetyl]-2,3-dimethoxy-phenoxy}-14-(2-pyridin-3-yl-ethyl)-acetamide] | above 6 M |
| COc1ccc(C(=O)Cc2c(Cl)cncc2Cl)c(O)c1OC1CCCC1 [Compound 260, 1-(3-Cyclopentyloxy-2-hydroxy-4-methoxy-phenyl)-2-(3,5-dichloro-pyridin-4-yl)-ethanone] | above 6 M |
| COc1ccc(C(=O)Cc2c(Cl)cncc2Cl)c(O)c1OCC1CC1 [Compound 261, 1-(3-Cyclopropylmethoxy-2-hydroxy-4-methoxy-phenyl)-2-(3,5-dichloro-pyridin-4-yl)-ethanone] | above 6 M |
| CCOc1c(OC)ccc(C(=O)Cc2c(Cl)cncc2Cl)c1O [Compound 262, 2-(3,5-Dichloro-pyridin-4-yl)-1-(3-ethoxy-2-hydroxy-4-methoxy-phenyl)-ethanone] | above 6 M |
| CCOc1c(OC)ccc(C(=O)Cc2c(Cl)cncc2Cl)c1OCCc1ccccc1 [Compound 263, 2-(3,5-Dichloro-pyridin-4-yl)-1-(3-ethoxy-4-methoxy-2-phenethyloxy-phenyl)-ethanone] | above 6 M |
| CCOc1c(OC)ccc(C(=O)Cc2c(Cl)cncc2Cl)c1OCc1nnc(C2CC2)s1 [Compound 264, 1-[2-(5-Cyclopropyl-[1,3,4]thiadiazol-2-ylmethoxy)-3-ethoxy-4-methoxy-phenyl]-2-(3,5-dichloro-pyridin-4-yl)-ethanone] | above 6 M |
| CCOc1c(OC)ccc(C(=O)Cc2c(Cl)cncc2Cl)c1OCC(=O)OCc1ccccc1 [Compound 265, {6-[2-(3,5-Dichloro-pyridin-4-yl)-acetyl]-2-ethoxy-3-methoxy-phenoxy}-acetic acid benzyl ester] | above 6 M |
| C=CCOc1c(OC)ccc(C(=O)Cc2c(Cl)cncc2Cl)c1O [Compound 266, 1-(3-Allyloxy-2-hydroxy-4-methoxy-phenyl)-2-(3,5-dichloro-pyridin-4-yl)-ethanone] | above 6 M |
| C=CCOc1c(OC)ccc(C(=O)Cc2c(Cl)cncc2Cl)c1OCc1ccccc1C#N [Compound 267, 2-{2-Allyloxy-6-[2-(3,5-dichloro-pyridin-4-yl)-acetyl]-3-methoxy-phenoxymethyl}-benzonitrile] | above 6 M |
| C=CCOc1c(OC)ccc(C(=O)Cc2c(Cl)cncc2Cl)c1OCCc1ccccc1 [Compound 268, 1-(3-Allyloxy-4-methoxy-2-phenethyloxy-phenyl)-2-(3,5-dichloro-pyridin-4-yl)-ethanone] | above 6 M |
| C=CCOc1c(OC)ccc(C(=O)Cc2c(Cl)cncc2Cl)c1OCCc1ccc(F)cc1 [Compound 269, 1-{3-Allyloxy-2-[2-(4-fluoro-phenyl)-ethoxy]-4-methoxy-phenyl}-2-(3,5-dichloro-pyridin-4-yl)-ethanone] | above 6 M |
| COc1ccc(C(=O)Cc2c(Cl)c[n+]([O-])cc2Cl)c(OCCc2ccccc2)c1OC [Compound 271, 2-(3,5-Dichloro-1-oxy-pyridin-4-yl)-1-(3,4-dimethoxy-2-phenethyloxy-phenyl)-ethanone] | above 6 M |
| COc1ccc(C(=O)Cc2c(Cl)cncc2Cl)c(OCCc2ccncc2)c1OC [Compound 277, 2-(3,5-Dichloro-pyridin-4-yl)-1-[3,4-dimethoxy-2-(2-pyridin-4-yl-ethoxy)-phenyl]-ethanone] | above 6 M |
| COc1ccc(C(=O)Cc2c(Cl)cncc2Cl)c(OCCc2ccc(C#N)cc2)c1OC [Compound 278, 4-(2-{6-[2-(3,5-Dichloro-pyridin-4-yl)-acetyl]-2,3-dimethoxy-phenoxy}-ethyl)-benzonitrile] | above 6 M |
| COc1ccc(C(=O)Cc2c(Cl)cncc2Cl)c(OCCc2ccccn2)c1OC [Compound 279, 2-(3,5-Dichloro-pyridin-4-yl)-1-[3,4-dimethoxy-2-(2-pyridin-2-yl-ethoxy)-phenyl]-ethanone] | above 6 M |
